# Among all 320,000 compounds or so, about 22,000 (6.9%) were called active. The inconclusive results got no clear call from the source; some entries with a clear call stand among them for comparison. The call rests on the fitted dose curve; in most records, active means well fitted inhibition curve with a large enough effect; inconclusive means small, poorly fitted or top-dose-only effect, or another doubt; inactive means no such curve, though single readings can be large or run the other way. Potencies of inconclusive entries are doubtful fits and often do not repeat.
# Assay: Primary qHTS for delayed death inhibitors of the malarial parasite plastid, 96 hour incubation
# Details: P. falciparum luciferase reporter growth; series mostly up to 28.7 µM; activity change, negative = inhibition: at the top concentration
# In short: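 Readout is luminescence from an integrated firefly luciferase in P. falciparum. Red cells, 2% hematocrit and 0.05% parasitemia final, were cultured with compound through two parasite generations (96 hours) at 37 C, 5% CO2.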
# On the % scale 0 is the no-effect control and ±100 the full control effect; potency means the concentration at half of the fitted maximal effect.
Structure (SMILES),"activity change, negative = inhibition",Potency
CC(C)(C)n1nnnc1C(c1cccnc1)N1CCN(c2ccccc2)CC1 (stereo unspecified),inactive: -16.9%,
CC1CCC(NC(=O)c2cc3ccccc3cc2O)CC1 (stereo unspecified),,"inconclusive: 10.4 µM [inhibitor, single point]"
CCn1c(=O)cc(OCC(=O)Nc2ccccc2N2CCN(C)CC2)c2ccccc21,,active: 9.28 µM
CCOc1ccc(S(=O)(=O)N2CCCCC2)c(C)c1C,,"inconclusive: 18.5 µM [inhibitor, single point]"
CN(C)c1ccc(/C=N/n2c(C3CCCCC3)n[nH]c2=S)cc1,,"inconclusive: 13.1 µM [inhibitor, single point]"
CCN1C(=O)N(CN2CCOCC2)C2C1N(CN1CCOCC1)C(=O)N2CC (stereo unspecified),,"inconclusive: 2.33 µM [inhibitor, full curve]"
CCN(CC)CCCNC(=O)c1cc2c(-c3ccc(Cl)cc3)nn(C)c2s1,,"inconclusive: 18.5 µM [inhibitor, single point]"
COC(=O)c1ccc(C2C(Oc3ccccc3)C(=O)N2CCc2ccc(F)cc2)cc1 (stereo unspecified),,"inconclusive: 13.1 µM [inhibitor, partial curve, poor fit]"
Cc1cccc2c(C(=O)O)cc(-c3cccnc3)nc12,inactive: -20.6%,
CCC(C)Nc1nc2c(c(=O)n(C)c(=O)n2C)n1C (stereo unspecified),,"inconclusive: 0.0165 µM [inhibitor, full curve, poor fit]"
Cc1ncc(CO)c2cc(-c3nnc(Nc4ccc5c(c4)OCO5)s3)c(=O)oc12,inactive: 16%,
COc1ccc(-n2c(SCC(=O)Nc3nccs3)nnc2-c2ccccc2)cc1,,"inconclusive: 2.94 µM [inhibitor, single point]"
Cc1cccc(OCC(=O)N2CCN(Cc3ccncc3)CC2)c1,,"inconclusive: 10.4 µM [inhibitor, single point]"
COc1ccc(NC(=O)CCCN(C)S(=O)(=O)c2ccc(C)cc2)cc1,,"inconclusive: 13.1 µM [inhibitor, partial curve]"
CCn1cc(/C=C(\NC(=O)c2ccccc2F)C(=O)N2CCCC2)c2ccccc21,,"inconclusive: 0.0037 µM [inhibitor, full curve, poor fit]"
O=C(CN1CCCCC1)N/N=C/c1ccc(Cl)cc1,inactive: 10.3%,
COc1ccc(C2/C=C\CN(S(=O)(=O)/C=C/c3ccccc3)CC(=O)N2Cc2ccc(F)cc2)cc1 (stereo unspecified),,"inconclusive: 11.7 µM [inhibitor, partial curve, poor fit]"
Cn1c(C(=O)N2CCCC(C(=O)NCCN3CCOCC3)C2)cc2sccc21 (stereo unspecified),inactive: 12%,
Cc1cccc(OCC(=O)Nc2ccc3c(c2)nc(CCN2CCC(C)CC2)n3C)c1,,"inconclusive: 10.4 µM [inhibitor, single point]"
CCCCc1ccc(S(=O)(=O)NNC(=S)NCc2ccco2)cc1,,"inconclusive: 18.5 µM [inhibitor, single point]"
Cc1ccc(NC(=O)CC(=O)Nc2ccc(C)cc2)cc1,,"inconclusive: 18.5 µM [inhibitor, single point]"
COc1cc(C(=S)NCc2ccccc2)cc(Br)c1O,inactive: 11.7%,
COc1ccc(OC)c(NC(=O)CSc2nnc(Cn3c(=O)sc4ccccc43)n2C)c1,,"inconclusive: 13.1 µM [inhibitor, single point]"
CN(CC(=O)NCc1ccccn1)S(=O)(=O)c1ccc(Br)cc1,inactive: -4.77%,

Structure (SMILES),"activity change, negative = inhibition",Potency
O=C(Nc1cc(Sc2nc3ccccc3s2)cc([N+](=O)[O-])c1)c1ccccc1F,,"inconclusive: 18.5 µM [inhibitor, single point]"
CCCc1nnc(SCC(=O)N2C(C)CCCC2C)n1CC (stereo unspecified),,"inconclusive: 2.94 µM [inhibitor, partial curve, poor fit]"
CC(C)Cn1nc(C(=O)OCC(=O)NCC(F)(F)F)c2ccccc2c1=O,,"inconclusive: 0.0029 µM [inhibitor, full curve, poor fit]"
O=C(COc1ccc(Cl)cc1Cl)N/N=C1\CCCc2ccccc21,inactive: -14.9%,
Nc1ncc(Br)cc1S(=O)(=O)Nc1ccccc1F,,"inconclusive: 1.65 µM [inhibitor, partial curve, poor fit]"
O=c1cc(O)c2sc(Nc3cccc(C(F)(F)F)c3)nc2[nH]1,inactive: 0%,
CCCC(C(=O)OCCN(CC)CC)(c1ccccc1)c1ccccc1,,active: 10.7 µM
CCOc1ccc(NC(=S)Nc2ccc(OC(F)(F)F)cc2)cc1,,"inconclusive: 10.4 µM [inhibitor, partial curve]"
O=C(NCc1cccc(C(F)(F)F)c1)N1CCN(S(=O)(=O)c2ccccc2F)CC1,inactive: -10%,
Cc1ccc(NC(=S)Nc2ccc(S(=O)(=O)Nc3ncccn3)cc2)c(C)c1,,"inconclusive: 4.15 µM [inhibitor, single point]"
COc1cccc(C(=O)NC(=S)N2CCN(c3ccc(C(F)(F)F)cc3[N+](=O)[O-])CC2)c1,,"inconclusive: 13.1 µM [inhibitor, single point]"
CCCC(=O)Nc1c(-c2ccccc2)c(=O)c(C)nn1-c1ccc(Cl)cc1,,"inconclusive: 10.4 µM [inhibitor, single point]"
O=C(CNC(=O)c1ccc(Br)cc1)NCC(=O)OCC(=O)c1ccc([N+](=O)[O-])cc1,inactive: -9.33%,
Cn1c(C(=O)c2ccccc2[N+](=O)[O-])nc2ccccc21,inactive: -22.4%,
Cc1ccc(Cl)cc1NC(=O)CN1C(=O)COc2ccc(S(=O)(=O)N3CCOCC3)cc21,,"inconclusive: 20.8 µM [inhibitor, partial curve, poor fit]"
N#CCn1cnc2c(oc3ccccc32)c1=O,inactive: 23.8%,
O=C(COc1cccc([N+](=O)[O-])c1)N/N=C/c1ccco1,inactive: 26%,
COc1ccc(OC)c(NC(=O)CN2C(=O)C(C)N(c3ccc(C)cc3)C2=O)c1 (stereo unspecified),,"inconclusive: 10.4 µM [inhibitor, partial curve, poor fit]"
COc1ccc(CCN=C(C)C2=C(O)C(c3ccccc3)OC2=O)cc1OC (stereo unspecified),,"inconclusive: 1.31 µM [inhibitor, partial curve, poor fit]"
Cc1snc(SCC(=O)c2ccc(F)cc2)c1C#N,inactive: 300%,
Cc1ccc(C)c(S(=O)(=O)NC(C)C(=O)Nc2ccc(-c3nc4ccccc4s3)cc2)c1 (stereo unspecified),inactive: 71.2%,
Cc1nnc(SCc2cccc([N+](=O)[O-])c2)o1,,"inconclusive: 1.65 µM [inhibitor, partial curve, poor fit]"
Clc1ccc(C(c2ccccc2)N2CCNCC2)cc1 (stereo unspecified),,"inconclusive: 18.5 µM [inhibitor, single point]"
COCCn1c(SCc2cnc(-c3ccccc3)s2)nnc1-c1ccncc1,,active: 9.28 µM

# As entered above:
# Potency, Nc1ncc(Br)cc1S(=O)(=O)Nc1ccccc1F reads inconclusive: 1.65 µM [inhibitor, partial curve, poor fit]
# Potency, Cc1ccc(NC(=S)Nc2ccc(S(=O)(=O)Nc3ncccn3)cc2)c(C)c1 reads inconclusive: 4.15 µM [inhibitor, single point]
# activity change, negative = inhibition, O=c1cc(O)c2sc(Nc3cccc(C(F)(F)F)c3)nc2[nH]1 reads inactive: 0%
# Potency, Cc1ccc(Cl)cc1NC(=O)CN1C(=O)COc2ccc(S(=O)(=O)N3CCOCC3)cc21 reads inconclusive: 20.8 µM [inhibitor, partial curve, poor fit]
# Potency, CCCC(C(=O)OCCN(CC)CC)(c1ccccc1)c1ccccc1 reads active: 10.7 µM

# (cont.)

Structure (SMILES),"activity change, negative = inhibition",Potency
COc1ccc(CCNC(=O)C2CCN(C(=O)c3ccc(Cl)cc3)CC2)cc1,inactive: -8.73%,
Cc1ccc(O)c(CNc2cccc3cccnc23)c1,,"inconclusive: 4.15 µM [inhibitor, partial curve, poor fit]"
Cc1cccc(/C(N)=N/OC(=O)c2ccco2)c1,,"inconclusive: 10.4 µM [inhibitor, single point]"
O=C(CCN=C1NS(=O)(=O)c2ccccc21)OCc1cccc(Cl)c1,inactive: 22.7%,
Cc1ccc(C(=O)CSc2ccc(-c3cccnc3)nn2)cc1,,"inconclusive: 16.5 µM [inhibitor, single point]"
Nc1nc(Br)c2ccccc2c1-c1ccc(F)cc1,,"inconclusive: 18.5 µM [inhibitor, single point]"
CN1C(=O)NC(=O)[C@]2(Cc3ccccc3N3CCN(c4ccccc4)CC32)C1=O (stereo partly specified),inactive: -87.4%,
CC(C)(C)OC(=O)NCc1ccc(CNC(=O)c2nc[nH]c2C(=O)NCc2ccccc2)cc1,,active: 2.94 µM
Clc1ccc2c(c1)CNc1c(ncnc1N1CCOCC1)O2,,"inconclusive: 3.29 µM [inhibitor, partial curve, poor fit]"
Cc1oc(-c2ccccc2Cl)nc1CS(=O)CC(=O)NCCc1ccccc1 (stereo unspecified),,"inconclusive: 18.5 µM [inhibitor, single point]"
CN(c1ccc(C(=O)N2CCOCC2)cc1[N+](=O)[O-])C1CCCCC1,inactive: 205%,
O=C1CC(N(CCc2ccccc2)C(=S)Nc2ccccc2)C(=O)N1c1ccc(Br)cc1 (stereo unspecified),,"inconclusive: 5.22 µM [inhibitor, partial curve, poor fit]"
CCn1c(O)c(/C=C2\C=Nc3ccccc32)sc1=Nc1ccc(C)cc1,inactive: -3.83%,
Cc1cccc(C(=O)OC2CCOC2=O)c1C (stereo unspecified),inactive: 44.9%,
Cc1cc(CNC(=O)Cn2nc(C)c([N+](=O)[O-])c2C)c2ccccc2n1,,"inconclusive: 6.57 µM [inhibitor, partial curve, poor fit]"
COc1cccc(-c2ccc(NC(=O)C3CCCN(Cc4nccn4C)C3)cc2)c1 (stereo unspecified),,active: 13.1 µM
O=C(NNS(=O)(=O)c1ccc(F)cc1)c1ccc2c(c1)OCO2,inactive: -0.693%,
Cc1ccc(CN(C)C(=O)c2cccc(S(=O)(=O)N3CCN(Cc4ccccc4)CC3)c2)o1,,"inconclusive: 10.4 µM [inhibitor, partial curve, poor fit]"
CCSCCC(NC1=CC(=O)CC(C)(C)C1)C(=O)O (stereo unspecified),,"inconclusive: 13.1 µM [inhibitor, single point]"
Cc1cc(C)cc(OCCOc2cccc(C=C3C(=O)NC(=O)NC3=O)c2)c1,inactive: 37.5%,
Cc1cc(C(=O)Nc2cccc(O)c2)co1,,"inconclusive: 18.5 µM [inhibitor, partial curve, poor fit]"
CC(O)c1nc2c(c(=O)n(C)c(=O)n2C)n1C (stereo unspecified),inactive: 101%,
CN(C(=O)c1ccc(NC(=O)Cc2ccc(NC(=O)C3CCCN(C(=O)C4CC4)C3)cc2)cc1)C1CC1 (stereo unspecified),,"inconclusive: 11.7 µM [inhibitor, single point]"
